Laboratory results: PubChem BioAssay AID743121 (NCATS, 2013)

Assay: 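Partners whose loss is lethal together with topoisomerase I blockade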 (primary screen)
Cell system: MDA-MB-231 cells, a human breast cancer line
Knock-down reagent: single siRNA against human genes, 20 nM siRNA (0.8 pmol per well)
Time to read-out: 120 h (drug added 48 h after transfection, read 72 h later)
Conditions: camptothecin 20 nM (about EC30) for 72 h; vehicle 0.1% DMSO in parallel plates
Read-out: 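CellTiter-Glo ATP signal, scaled to control siRNA as percent viability; sensitisation given as log2 of untreated divided by camptothecin-treated viability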
Direction: log2 vehicle/camptothecin viability: higher = stronger sensitisation to camptothecin
Active means: 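Each gene scored by redundant siRNA activity (RSA) over its individual siRNA ratios; a gene is called active at p < 0.001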
The whole screen tested about 26,000 reagents; below is a random part of them. 167 of all reagents (0.63%) were called active. 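Calls are per gene from RSA p-values that are not deposited; an individual active-marked siRNA can sensitise only weakly.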 Reagents against one gene are numbered here. Further read-outs or replicates are left out here.

target	reagent	log2 vehicle/camptothecin viability	Call
LYPD1 (LY6/PLAUR domain containing 1)	1	0.107	inactive
LYPD1 (LY6/PLAUR domain containing 1)	2	0.449	inactive
LYPD1 (LY6/PLAUR domain containing 1)	3	0.112	inactive
BCAT1 (branched chain amino acid transaminase 1)	1	0.228	inactive
BCAT1 (branched chain amino acid transaminase 1)	2	-0.12	inactive
BCAT1 (branched chain amino acid transaminase 1)	3	0.00138	inactive
BCAT1 (branched chain amino acid transaminase 1)	4	0.195	inactive
GSN (gelsolin)	1	-0.294	inactive
GSN (gelsolin)	2	-0.269	inactive
GSN (gelsolin)	3	-0.569	inactive
GSN (gelsolin)	4	0.136	inactive
ADGRG1 (adhesion G protein-coupled receptor G1)	1	-0.355	inactive
ADGRG1 (adhesion G protein-coupled receptor G1)	2	-0.533	inactive
ADGRG1 (adhesion G protein-coupled receptor G1)	3	-0.468	inactive
ADGRG1 (adhesion G protein-coupled receptor G1)	4	-0.305	inactive
FGFR1 (fibroblast growth factor receptor 1)	1	-0.2	inactive
FGFR1 (fibroblast growth factor receptor 1)	2	-0.263	inactive
FGFR1 (fibroblast growth factor receptor 1)	3	-0.664	inactive
FGFR1 (fibroblast growth factor receptor 1)	4	-0.51	inactive
PPP1R13B (protein phosphatase 1 regulatory subunit 13B)	1	-0.218	inactive
PPP1R13B (protein phosphatase 1 regulatory subunit 13B)	2	0.817	inactive
PPP1R13B (protein phosphatase 1 regulatory subunit 13B)	3	-0.115	inactive
PPP1R13B (protein phosphatase 1 regulatory subunit 13B)	4	-0.321	inactive
TBCE (tubulin folding cofactor E)	1	0.074	inactive
TBCE (tubulin folding cofactor E)	2	-0.162	inactive
TBCE (tubulin folding cofactor E)	3	-0.0831	inactive
TMUB1 (transmembrane and ubiquitin like domain containing 1)	1	-0.392	inactive
TMUB1 (transmembrane and ubiquitin like domain containing 1)	2	0.0219	inactive
TMUB1 (transmembrane and ubiquitin like domain containing 1)	3	0.647	inactive
TMUB1 (transmembrane and ubiquitin like domain containing 1)	4	0.143	inactive
SNX21 (sorting nexin family member 21)	1	-0.196	inactive
SNX21 (sorting nexin family member 21)	2	0.284	inactive
SNX21 (sorting nexin family member 21)	3	-0.255	inactive
ACO1 (aconitase 1)	1	-0.158	inactive
ACO1 (aconitase 1)	2	0.104	inactive
ACO1 (aconitase 1)	3	0.442	inactive
ACO1 (aconitase 1)	4	-0.0712	inactive
OGFR (opioid growth factor receptor)	1	-0.276	inactive
OGFR (opioid growth factor receptor)	2	-0.53	inactive
OGFR (opioid growth factor receptor)	3	-0.0442	inactive
OGFR (opioid growth factor receptor)	4	-0.082	inactive
OGFR (opioid growth factor receptor)	5	-0.436	inactive
STAT4 (signal transducer and activator of transcription 4)	1	-0.0215	inactive
STAT4 (signal transducer and activator of transcription 4)	2	-0.23	inactive
STAT4 (signal transducer and activator of transcription 4)	3	0.0184	inactive
FGGY (FGGY carbohydrate kinase domain containing)	1	-0.069	inactive
FGGY (FGGY carbohydrate kinase domain containing)	2	-0.163	inactive
FGGY (FGGY carbohydrate kinase domain containing)	3	0.0875	inactive
FGGY (FGGY carbohydrate kinase domain containing)	4	-0.168	inactive

Records listed so far whose target name begins with O or o (5):
target	reagent	log2 vehicle/camptothecin viability	Call
OGFR (opioid growth factor receptor)	1	-0.276	inactive
OGFR (opioid growth factor receptor)	2	-0.53	inactive
OGFR (opioid growth factor receptor)	3	-0.0442	inactive
OGFR (opioid growth factor receptor)	4	-0.082	inactive
OGFR (opioid growth factor receptor)	5	-0.436	inactive
